Record: PubChem BioAssay AID686938 (Drosophila RNAi Screening Center, 2013)

- Screen: 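Looking for CRAC channel components and the factors controlling them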 (primary screen)
- Cell system: Drosophila S2R+ cells
- Reagents: long dsRNA against Drosophila genes, about 0.25 µg dsRNA per well, roughly 10,000 cells
- Timing: 5 days of knock-down before the calcium assay
- Conditions: thapsigargin (SERCA pump blocker) to empty calcium stores; entry signal taken 4 min after adding it
- Measured: 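Per-well fluo-4 fluorescence in two replicates, unnormalised, measured in resting cells and 4 min after store depletion by the SERCA blocker thapsigargin; ratio of the two present in few wells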
- Scale: calcium entry signal: higher = stronger calcium signal after store depletion; entry to resting ratio: higher = more calcium entry relative to resting level; resting calcium signal: higher = higher resting calcium signal
- Rule for the call: 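Called when the plate z-score of the entry-to-rest ratio, mean of duplicates, falls below −3; wells with low overall dye signal (Fmax z below −2) or more than five off-targets excluded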
- Meaning of the calls: active = strongly reduced calcium entry; inactive = no strong reduction
In all, the deposit lists about 23,000 reagents; shown is an unselected part of those with a known target gene and a result. Of all reagents, 75 (0.33%) got an active call. 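Raw plate signals without normalisation; calls rest on plate z-scores that were not deposited; ratio present for only 364 wells.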 Reagents against one gene are numbered here. Not stated in the record: the dose of the treatment.

The opening 4 entries, to show the layout:
target | reagent no. | calcium entry signal, replicate 1 (fluorescence units) | calcium entry signal, replicate 2 (fluorescence units) | entry to resting ratio | resting calcium signal, replicate 1 (fluorescence units) | resting calcium signal, replicate 2 (fluorescence units) | call
Atg2 | 1 | 4.31e7 | 3.63e7 | – | 2.13e7 | 1.72e7 | inactive
CG2063 | 1 | 3.18e7 | 4.34e7 | – | 1.89e7 | 1.98e7 | inactive
RpS19a | 1 | 1.05e7 | 9.13e6 | – | 8.08e6 | 6.75e6 | inactive
CycB | 1 | 3.40e7 | – | – | 1.81e7 | – | inactive

The list itself, from the first entry:
target | reagent no. | calcium entry signal, replicate 1 (fluorescence units) | calcium entry signal, replicate 2 (fluorescence units) | entry to resting ratio | resting calcium signal, replicate 1 (fluorescence units) | resting calcium signal, replicate 2 (fluorescence units) | call
Atg2 | 1 | 4.31e7 | 3.63e7 | – | 2.13e7 | 1.72e7 | inactive
CG2063 | 1 | 3.18e7 | 4.34e7 | – | 1.89e7 | 1.98e7 | inactive
RpS19a | 1 | 1.05e7 | 9.13e6 | – | 8.08e6 | 6.75e6 | inactive
CycB | 1 | 3.40e7 | – | – | 1.81e7 | – | inactive
sicily | 1 | 3.85e7 | 6.53e7 | – | 1.88e7 | 3.02e7 | inactive
Kcmf1 | 1 | 3.20e7 | 3.73e7 | – | 1.54e7 | 1.90e7 | inactive
kon | 1 | 3.39e7 | – | – | 1.38e7 | – | inactive
HSPC300 | 1 | 4.63e7 | 3.15e7 | – | 2.26e7 | 1.40e7 | inactive
Nup50 | 1 | 3.71e7 | 3.61e7 | – | 1.61e7 | 1.52e7 | inactive
Slc45-1 | 1 | 2.91e7 | 2.74e7 | – | 1.51e7 | 1.30e7 | inactive
PAPLA1 | 1 | 4.72e7 | – | – | 2.43e7 | – | inactive
PAPLA1 | 2 | 2.81e7 | 4.63e7 | – | 1.41e7 | 2.00e7 | inactive
ds | 1 | 2.68e7 | 3.09e7 | – | 1.32e7 | 1.34e7 | inactive
BORCS5 | 1 | 2.27e7 | 2.91e7 | – | 1.21e7 | 1.42e7 | inactive
CG9406 | 1 | 4.78e7 | 4.75e7 | – | 2.16e7 | 2.27e7 | inactive
CG11703 | 1 | 3.43e7 | 2.62e7 | – | 1.72e7 | 1.24e7 | inactive
PCB | 1 | 4.46e7 | 3.10e7 | – | 1.86e7 | 1.58e7 | inactive
Set | 1 | 3.56e7 | 4.37e7 | – | 1.55e7 | 1.76e7 | inactive
Prdm13 | 1 | 3.14e7 | 5.05e7 | – | 1.50e7 | 2.05e7 | inactive
tud | 1 | 2.98e7 | 4.32e7 | – | 1.74e7 | 1.91e7 | inactive
CG8520 | 1 | 3.59e7 | 4.31e7 | – | 1.62e7 | 2.04e7 | inactive
NKCC | 1 | 3.30e7 | 4.07e7 | – | 1.44e7 | 1.75e7 | inactive
NKCC | 2 | 4.07e7 | 2.60e7 | – | 1.88e7 | 1.34e7 | inactive
ac | 1 | 2.92e7 | 3.23e7 | 1.8 | 1.60e7 | 1.51e7 | inactive
CG32457 | 1 | 3.87e7 | 5.45e7 | – | 1.88e7 | 2.65e7 | inactive
CG32457 | 2 | 2.31e7 | 3.62e7 | – | 1.18e7 | 1.59e7 | inactive
CR31032 | 1 | 3.13e7 | 3.17e7 | – | 1.93e7 | 1.59e7 | inactive
CG4367 | 1 | 3.48e7 | 3.77e7 | – | 4.49e7 | 1.68e7 | inactive
CG42402 | 1 | 4.97e7 | 5.19e7 | – | 2.38e7 | 2.04e7 | inactive
CG7881 | 1 | 4.29e7 | 4.64e7 | – | 2.16e7 | 2.25e7 | inactive
mei-38 | 1 | 3.99e7 | 4.63e7 | 1.8 | 2.21e7 | 2.14e7 | inactive
Mpv17 | 1 | 3.89e7 | 5.74e7 | 2 | 1.98e7 | 2.27e7 | inactive
CG13334 | 1 | 3.29e7 | 4.05e7 | – | 1.65e7 | 1.83e7 | inactive
osa | 1 | 4.66e7 | 3.60e7 | – | 2.39e7 | 1.87e7 | inactive
CG13924 | 1 | 3.85e7 | 4.02e7 | – | 1.97e7 | 1.76e7 | inactive
Hacd2 | 1 | 3.32e7 | 2.24e7 | – | 1.43e7 | 1.04e7 | inactive
intr | 1 | 4.41e7 | 4.41e7 | – | 1.92e7 | 2.15e7 | inactive
VhaAC39-2 | 1 | 4.59e7 | 6.66e7 | – | 2.37e7 | 2.73e7 | inactive
Pus7 | 1 | 2.49e7 | 3.49e7 | – | 1.22e7 | 1.65e7 | inactive
Abi | 1 | 2.71e7 | 2.68e7 | – | 1.18e7 | 1.31e7 | inactive
garz | 1 | 2.39e7 | 5.30e7 | – | 1.60e7 | 2.11e7 | inactive
ktub | 1 | 3.70e7 | – | – | 1.93e7 | – | inactive
CG11307 | 1 | 2.24e7 | 3.31e7 | – | 1.07e7 | 1.50e7 | inactive
sif | 1 | 4.08e7 | 4.99e7 | – | 2.10e7 | 2.28e7 | inactive
sif | 2 | 3.69e7 | 5.08e7 | – | 1.68e7 | 2.04e7 | inactive
sif | 3 | 3.74e7 | 6.08e7 | – | 1.71e7 | 2.99e7 | inactive
sif | 4 | 2.46e7 | 4.04e7 | – | 1.35e7 | 1.84e7 | inactive
CG8160 | 1 | 3.74e7 | 5.28e7 | – | 1.93e7 | 2.76e7 | inactive
CG8160 | 2 | 4.90e7 | 3.54e7 | – | 2.73e7 | 1.73e7 | inactive
levy | 1 | 3.97e7 | 4.21e7 | – | 1.84e7 | 1.73e7 | inactive
Coq3 | 1 | 3.74e7 | – | – | 1.95e7 | – | inactive
Fbp1 | 1 | 5.70e7 | 6.74e7 | – | 2.29e7 | 2.64e7 | inactive
ThrRS | 1 | 4.54e7 | – | – | 2.17e7 | – | inactive
Nach | 1 | 4.97e7 | 5.66e7 | – | 2.36e7 | 2.86e7 | inactive
sel | 1 | 4.16e7 | 2.98e7 | – | 1.68e7 | 1.44e7 | inactive
CG6726 | 1 | 4.99e7 | 4.97e7 | – | 2.42e7 | 2.06e7 | inactive
Tsen2 | 1 | 2.54e7 | 4.15e7 | – | 1.48e7 | 1.78e7 | inactive
Hel89B | 1 | 4.35e7 | 4.43e7 | – | 1.98e7 | 2.33e7 | inactive
Hel89B | 2 | 4.34e7 | 3.83e7 | – | 2.85e7 | 1.84e7 | inactive
